In doi:10.1101/2021.06.01.446527:
Changes are numbered by the printed parent chain. In names and notes the source's numbering stands. Results are given in words; binding and its absence hold for the method and conditions named. Binding seen in cells or lysates may run through a third protein. Some entries that bind do so weakly or less than the wild type. Sequences can lack the tags named with a protein. Values belong to the molecule of their own block, whether it stands above or below them.

The chains behind the UniProt entries cited, without tags or fusion partners.
UniProt P52630: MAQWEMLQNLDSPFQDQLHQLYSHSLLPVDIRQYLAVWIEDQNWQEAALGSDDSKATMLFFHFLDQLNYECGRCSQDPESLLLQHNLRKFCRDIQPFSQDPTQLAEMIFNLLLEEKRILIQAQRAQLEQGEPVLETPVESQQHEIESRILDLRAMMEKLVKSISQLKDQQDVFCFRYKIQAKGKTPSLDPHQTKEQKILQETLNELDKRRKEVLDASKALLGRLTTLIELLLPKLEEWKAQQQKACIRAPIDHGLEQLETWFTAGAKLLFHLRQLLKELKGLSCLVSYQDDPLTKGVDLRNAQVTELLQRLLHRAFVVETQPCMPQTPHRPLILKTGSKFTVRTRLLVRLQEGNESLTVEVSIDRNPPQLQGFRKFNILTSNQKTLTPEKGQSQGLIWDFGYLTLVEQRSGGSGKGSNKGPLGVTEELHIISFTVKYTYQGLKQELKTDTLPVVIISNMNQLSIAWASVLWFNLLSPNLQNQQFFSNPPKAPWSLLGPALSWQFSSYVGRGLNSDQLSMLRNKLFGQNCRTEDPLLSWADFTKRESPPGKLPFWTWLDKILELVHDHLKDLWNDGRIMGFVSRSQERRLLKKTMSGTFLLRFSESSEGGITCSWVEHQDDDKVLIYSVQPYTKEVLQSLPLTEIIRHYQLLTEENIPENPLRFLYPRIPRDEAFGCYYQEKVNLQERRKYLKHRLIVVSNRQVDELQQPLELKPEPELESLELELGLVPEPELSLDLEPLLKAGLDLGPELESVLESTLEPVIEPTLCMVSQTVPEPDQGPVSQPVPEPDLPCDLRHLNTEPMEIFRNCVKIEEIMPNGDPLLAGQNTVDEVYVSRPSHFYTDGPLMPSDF

Target: T1, V5-tagged IFNAR2 cytosolic domain (aa 265-515) (UniProt P48551)
T1 sequence: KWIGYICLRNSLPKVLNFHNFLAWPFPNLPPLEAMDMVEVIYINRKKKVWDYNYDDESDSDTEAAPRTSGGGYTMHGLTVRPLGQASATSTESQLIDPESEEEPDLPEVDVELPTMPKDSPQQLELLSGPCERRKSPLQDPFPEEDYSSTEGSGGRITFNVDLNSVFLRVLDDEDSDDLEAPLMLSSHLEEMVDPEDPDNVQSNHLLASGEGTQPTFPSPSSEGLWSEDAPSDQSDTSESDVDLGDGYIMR
Assay: co-IP

- binding: binds
Molecule: Myc-tagged STAT2 (STAT2-Myc) (from UniProt P52630 1-851)

- binding: binds
B1: Flag-tagged wt USP18 (USP18.wt-3XFlag) (enzyme, UniProt Q9UMW8-1 1-372)
chain: MSKAFGLLRQICQSILAESSQSPADLEEKKEEDSNMKREQPRERPRAWDYPHGLVGLHNIGQTCCLNSLIQVFVMNVDFTRILKRITVPRGADEQRRSVPFQMLLLLEKMQDSRQKAVRPLELAYCLQKCNVPLFVQHDAAQLYLKLWNLIKDQITDVHLVERLQALYTIRVKDSLICVDCAMESSRNSSMLTLPLSLFDVDSKPLKTLEDALHCFFQPRELSSKSKCFCENCGKKTRGKQVLKLTHLPQTLTIHLMRFSIRNSQTRKICHSLYFPQSLDFSQILPMKRESCDAEEQSGGQYELFAVIAHVGMADSGHYCVYIRNAVDGKWFCFNDSNICLVSWEDIQCTYGNPNYHWQETAYLLVYMKMEC

- binding: binds
B2: Flag-tagged USP18.I60N (USP18.I60N-3XFlag) (enzyme, UniProt Q9UMW8-1 1-372)
chain: B1 chain with I60N

- binding: binds
B3: Flag-tagged catalytically inactive USP18.C64S (USP18.C64S-3XFlag) (enzyme, UniProt Q9UMW8-1 1-372)
chain: B1 chain with C64S
